Results as given in article PMC3017775.
Results are given in words; binding and its absence hold for the method and conditions named. For some assays here: Binding calls can cover weak binding; strength is not graded here.

How the values were obtained:
Assay in all cases: two-hybrid; binding domain (pDEST32) and activation domain (pDEST22) fusions combined in both directions by mating PJ69-4A and PJ69-4α; selection on SD -Leu -Trp -Ade and SD -Leu -Trp -His + 1, 5 or 10 mM 3-AT; +22°C for 5 days; positive if either direction grew
[1] = molecular target: T1, GSQUA2 (Gerbera hybrida) (UniProt D2T2G0)
T1 sequence: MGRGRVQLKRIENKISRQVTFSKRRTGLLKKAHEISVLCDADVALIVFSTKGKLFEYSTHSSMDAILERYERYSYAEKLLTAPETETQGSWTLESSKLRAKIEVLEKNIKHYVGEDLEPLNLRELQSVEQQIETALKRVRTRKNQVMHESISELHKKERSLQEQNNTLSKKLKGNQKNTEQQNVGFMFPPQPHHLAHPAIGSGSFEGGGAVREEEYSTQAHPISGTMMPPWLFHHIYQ

[2] = molecular target: T2, GDEF1 (Gerbera hybrida) (UniProt Q9ZS28)
T2 sequence: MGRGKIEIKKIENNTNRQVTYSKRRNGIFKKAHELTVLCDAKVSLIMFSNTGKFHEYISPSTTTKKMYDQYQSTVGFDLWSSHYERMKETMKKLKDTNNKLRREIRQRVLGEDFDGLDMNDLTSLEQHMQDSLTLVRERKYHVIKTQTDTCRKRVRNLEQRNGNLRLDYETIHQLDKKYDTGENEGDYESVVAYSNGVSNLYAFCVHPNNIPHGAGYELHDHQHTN

[3] = molecular target: T3, GSQUA3 (Gerbera hybrida) (UniProt D2T2G1)
T3 sequence: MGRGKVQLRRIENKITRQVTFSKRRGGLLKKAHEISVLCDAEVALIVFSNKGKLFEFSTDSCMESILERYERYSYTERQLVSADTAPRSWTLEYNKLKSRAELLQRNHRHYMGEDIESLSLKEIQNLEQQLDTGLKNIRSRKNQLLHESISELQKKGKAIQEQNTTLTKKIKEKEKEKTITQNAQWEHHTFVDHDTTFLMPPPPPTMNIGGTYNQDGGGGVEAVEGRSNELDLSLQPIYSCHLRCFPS

[4] = molecular target: T4, GDEF2 (Gerbera hybrida) (UniProt Q9ZS27)
T4 sequence: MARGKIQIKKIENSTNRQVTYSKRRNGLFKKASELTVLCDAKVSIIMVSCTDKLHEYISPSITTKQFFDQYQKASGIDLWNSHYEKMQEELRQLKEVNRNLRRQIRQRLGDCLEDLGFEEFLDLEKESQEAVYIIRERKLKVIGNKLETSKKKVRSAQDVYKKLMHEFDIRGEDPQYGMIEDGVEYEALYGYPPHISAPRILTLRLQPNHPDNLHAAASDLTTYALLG

| Substance | binding [1] | binding [2] | binding [3] | binding [4] |
| --- | --- | --- | --- | --- |
| GRCD4, truncated (C terminal deletion) (Gerbera hybrida) (domain or fragment) | binds | no binding | binds | no binding |
| GRCD5, truncated (C terminal deletion) (Gerbera hybrida) (domain or fragment) | binds | no binding | binds | no binding |
